Data from PMC11315898.
Results are given in words; binding and its absence hold for the method and conditions named. Where a sequence is shown, tags or fusion partners need not be part of it.

Legend:
[1] = biological target: His-SUMO-Mis18α_(188-233 I201A/L205A) (human) (UniProt Q9NYP9); test: SEC-MALS; Superdex 75 increase 10/300 GL, 50 mM HEPES pH 8.0, 150 mM NaCl, 1 mM TCEP, 22 °C; 100 µl of 2–6 mg/ml injected; both purified
[2] = biological target: His-SUMO-Mis18α_(188-233 L212A/L215A/L219A) (human) (UniProt Q9NYP9); test: as above

| Binder | binding [1] | binding [2] |
| --- | --- | --- |
| EDKELFNLESRVEAEKSATQMEDVLKALQMKLWEAESKLSFATCKS (domain or fragment, UniProt Q9NYP9 188-233) [His-SUMO-Mis18α_(188-233 I201A/L205A)] | no binding (tested: 100 µl of 2–6 mg/ml injected) |  |
| EDKELFNLESRVEIEKSLTQMEDVAKAAQMKAWEAESKLSFATCKS (domain or fragment, UniProt Q9NYP9 188-233) [His-SUMO-Mis18α_(188-233 L212A/L215A/L219A)] |  | no binding (tested: 100 µl of 2–6 mg/ml injected) |
